Assay results published in US20250295804A1 (Shenzhen Enduring Biotech, Ltd., priority 2022, published 2025).

Test: general procedure: solution-phase peptide synthesis; EDCI/HOBt
Settings: conjugation step

Substance | conjugation yield [%]
30kmPEG-Lys(Mal)-(MMAE)2 | 47
20k mPEG-Lys(Mal)-(MMAE)4 | 22
